Laboratory results as given in PubChem BioAssay AID1671190 (National Center for Advancing Translational Sciences (NCATS), 2021).
“And” between values parts separate entries of the source, which are not always exact repeats. Equal values may be shown once. Screen size: about 580,000 compounds; about 6,100 (1.1%) were called active. The shares of active, inactive and inconclusive entries below differ from those in the screen. Calls follow the shape of the dose curve; as a rule, active = well fitted inhibition curve with a large enough effect; inconclusive = small, poorly fitted or top-dose-only effect, or another doubt; inactive = no such curve, though single readings can be large or run the other way. A potency beside an inconclusive call is a rough fit, not a confirmed value.

By UniProt entry, the sequences of proteins in these tests, tags left out. Where a name states a change or a piece, a line headed by the entry shows the natural chain unless it says otherwise.
UniProt P18054: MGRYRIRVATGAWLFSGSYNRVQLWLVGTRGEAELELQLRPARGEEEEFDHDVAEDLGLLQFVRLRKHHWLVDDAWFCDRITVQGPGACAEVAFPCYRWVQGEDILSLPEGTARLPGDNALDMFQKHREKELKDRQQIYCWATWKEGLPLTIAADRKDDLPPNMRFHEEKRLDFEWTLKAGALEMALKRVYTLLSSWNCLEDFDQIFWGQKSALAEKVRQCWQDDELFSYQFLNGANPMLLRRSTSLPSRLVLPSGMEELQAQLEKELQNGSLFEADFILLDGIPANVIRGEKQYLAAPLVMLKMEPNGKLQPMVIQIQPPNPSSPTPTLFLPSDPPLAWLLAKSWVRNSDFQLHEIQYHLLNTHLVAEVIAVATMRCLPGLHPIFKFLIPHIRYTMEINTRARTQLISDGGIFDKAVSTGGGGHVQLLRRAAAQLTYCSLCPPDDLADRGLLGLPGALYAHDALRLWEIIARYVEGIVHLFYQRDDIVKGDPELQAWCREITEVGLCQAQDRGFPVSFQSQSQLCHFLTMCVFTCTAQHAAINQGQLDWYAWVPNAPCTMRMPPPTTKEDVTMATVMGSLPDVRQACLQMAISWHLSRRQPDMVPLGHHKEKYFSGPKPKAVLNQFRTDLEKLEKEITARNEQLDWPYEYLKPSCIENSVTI

Target: Polyunsaturated fatty acid lipoxygenase ALOX12 (Homo sapiens) (UniProt P18054)
Assay: Primary qHTS assay for inhibitors of human arachidonate 12S-lipoxygenase (ALOX12): Round 2
Details: purified 12hLO, xylenol orange hydroperoxide absorbance; activity change, negative = inhibition: at 108 µM (top of the series) unless noted
In short: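 Hydroperoxide product was detected by ferrous iron/xylenol orange as the 573 to 405 nm absorbance ratio. Arachidonic acid at 40 uM (final) was turned over for 30 min at room temperature by 150 nM human 12hLO, pH 7.0 Hepes buffer, after 15 min compound preincubation.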
% is scaled to controls: 0 for no effect and ±100 for the full control effect; potency is read from the fitted curve at half-maximal effect.

Row | Compound | Potency | activity change, negative = inhibition
1 | O=C(Nc1ccc(Cl)cc1)Nc1ccccc1NS(=O)(=O)c1cccs1 | inconclusive: 44.7 µM [inhibitor, partial curve, poor fit] | 
2 | C=CCN(C(=O)c1cccc(N2C(=O)C3CC=CC(C)C3C2=O)c1)c1ccccc1 (stereo not drawn) | inconclusive: 79.4 µM [inhibitor, partial curve, poor fit] | 
3 | N#Cc1nc(-c2ccccc2)oc1N1CCC(C(N)=O)CC1 | inactive and inconclusive: 100 µM [inhibitor, partial curve, poor fit] | 
4 | CCc1ccccc1NC(=O)c1ccccc1SCc1cccs1 | inconclusive: 39.8 µM [inhibitor, partial curve, poor fit] | 
5 | CCCC(C)NC(=O)COc1cc2oc(=O)cc(-c3ccccc3)c2cc1Cl (stereo not drawn) | inconclusive: 112 µM [inhibitor, single point] | 
6 | CN1CCN(C(=O)Cn2c(=O)c3c(ncn3Cc3ccccc3)n(Cc3ccccc3)c2=O)CC1 |  | inactive: -14.4%
7 | COc1ccc(Cl)cc1NC(=O)c1cc2c(=O)n3ccccc3nc2s1 |  | inactive: -22.7%
8 | O=C(Nc1ccc(C23CC4CC(CC(C4)C2)C3)cc1)c1ccc2ncsc2c1 |  | inactive: 3%
9 | S=c1[nH]cnc2sc(Nc3ccccc3)nc12 | inconclusive: 10 µM [inhibitor, full curve, poor fit] | 
10 | O=C(O)C(C/C(=N/O)c1ccc(Br)cc1)P(=O)(c1ccccc1)c1ccccc1 (stereo not drawn) | inconclusive: 35.5 µM [inhibitor, partial curve, poor fit] | 
11 | COc1ccccc1OCC(=O)OCC(=O)Nc1ncc(Cl)cc1Cl | inconclusive: 35.5 µM [inhibitor, partial curve] | 
12 | COc1ccc(-c2ccc(CN3C(C(C)C)C(=O)N(Cc4cn(CC5CCCCC5)nn4)CCS3(=O)=O)cc2)cn1 (stereo not drawn) | inconclusive: 126 µM [inhibitor, single point] | 
13 | CCOc1ccccc1CN1CCCN(S(C)(=O)=O)C(c2ccccc2)CC(=O)NCC1 (stereo not drawn) |  | inactive: -1.18%
14 | Cc1cc(NC(=O)CCN2CCN(C/C=C/c3ccccc3)CC2)ccc1Br | active: 6.31 µM | 
15 | O=C(c1ccccn1)N1CCC(n2c(=O)[nH]c3ccccc32)CC1 | inconclusive: 25.1 µM [inhibitor, full curve] | 
16 | O=C(C1CCCC1)N1Cc2ccccc2CC2(CCCN(CC3CCNC3)C2)C1 (stereo not drawn) | inconclusive: 0.507 µM [inhibitor, single point] | 
17 | CC1(C)CC(=O)c2c(oc3cc(O)c(O)cc23)C1 | inconclusive: 1 µM [inhibitor, full curve, poor fit] | 
18 | O=C(COc1cccc(Br)c1)OCc1coc(-c2ccccc2)n1 | inconclusive: 0.199 µM [inhibitor, full curve, poor fit] | 
19 | O=c1ccc2ccc(O)cc2o1 |  | inactive: 8.56%
20 | COc1cccc(CNC(=O)Cc2ccc(-c3ccccc3)cc2)c1 |  | inactive: 21.6%
21 | COc1ccc(C(=O)C[n+]2cn(C(F)F)c3ccccc32)c(F)c1 |  | inactive: 3.84%

Some of the entries above, set out differently:
Row,Compound,Potency,"activity change, negative = inhibition"
2,C=CCN(C(=O)c1cccc(N2C(=O)C3CC=CC(C)C3C2=O)c1)c1ccccc1 (stereo not drawn),"inconclusive: 79.4 µM [inhibitor, partial curve, poor fit]",
3,N#Cc1nc(-c2ccccc2)oc1N1CCC(C(N)=O)CC1,"inactive and inconclusive: 100 µM [inhibitor, partial curve, poor fit]",

Continuation:

Row | Compound | Potency | activity change, negative = inhibition
22 | Cc1ccc(C(=O)Nc2cccc(NC(=O)c3cccnc3)c2)cc1 | inconclusive: 39.8 µM [inhibitor, partial curve, poor fit] | 
23 | CCC(Oc1ccccc1)C(=O)Nc1sc(C(=O)OC)c(C)c1C(=O)OC (stereo not drawn) |  | inactive: 33.4%
24 | Cn1nc(C(F)(F)F)c(Cl)c1C(=O)Nc1sc2c(c1C#N)CCCC2 | inconclusive: 31.6 µM [inhibitor, partial curve, poor fit] | 
25 | CCN(CC)S(=O)(=O)c1ccc(NC(=O)c2cnc(C)cn2)cc1 | inconclusive: 112 µM [inhibitor, single point] | 
26 | CC(=O)Nc1cccc(CNC(=O)/C=C/c2sccc2C)c1 | inconclusive: 79.4 µM [inhibitor, partial curve, poor fit] | 
27 | Cc1ccc(CC(C#N)Sc2nnc(COc3ccccc3Cl)n2C)cc1 (stereo not drawn) | inconclusive: 50.1 µM [inhibitor, partial curve, poor fit] | 
28 | CC(C)CCN1CCC(N2CCN(C(=O)c3cc(F)cc(F)c3)CC2)C1=O (stereo not drawn) |  | inactive: 80.2%
29 | CC12CCC(c3c(CO)nn(-c4ccccc4)c31)C2(C)C (stereo not drawn) | inconclusive: 0.316 µM [inhibitor, full curve, poor fit] | 
30 | COc1ccc(-c2c(C(=O)O)sc3c2NC(=O)CC32C(=O)N(C)c3c(C)cccc32)cc1 (stereo not drawn) | inconclusive: 56.2 µM [inhibitor, single point] | 
31 | Cc1ccc(S(=O)Cc2nc(-c3ccc(C(=O)NC(C)c4ccccc4)cc3)oc2C)cc1 (stereo not drawn) | inconclusive: 89.1 µM [inhibitor, partial curve, poor fit] | 
32 | CN(C)N1C(N)=C(C#N)C(c2cccc(Cl)c2)C2=C1CCCC2=O (stereo not drawn) | inconclusive: 50.1 µM [inhibitor, partial curve, poor fit] | 
33 | C=CCC(C#Cc1ccccc1)N(C)C (stereo not drawn) | inconclusive: 56.2 µM [inhibitor, partial curve, poor fit] | 
34 | CC(C)NC(=O)c1cc2ccccc2o1 |  | inactive: 11.3%
35 | COc1cccc(N2C(=O)NC(=NC3CCCCC3)C23CCN(Cc2ccsc2)CC3)c1 |  | inactive: 5.64% [at 6.33 µM]
36 | Cc1noc(C)c1-c1nc(N(C)C)c2ccccc2n1 | inconclusive: 39.8 µM [inhibitor, partial curve, poor fit] | 
37 | Cc1ccc(CSc2ncnc3onc(C)c23)cc1 |  | inactive: 0%
38 | COc1ccc(N2CCN(Cc3nc4c(c(=O)[nH]c(=O)n4C)n3Cc3ccccc3)CC2)cc1 | inconclusive: 44.7 µM [inhibitor, partial curve, poor fit] | 
39 | COc1ccc(NC(=O)Nc2nc(C(N)Cc3ccc(C(F)(F)F)cc3)cs2)cc1 (stereo not drawn) | inconclusive: 70.8 µM [inhibitor, partial curve, poor fit] | 
40 | Cc1cccc(-c2cc(C(=O)Nc3cccc(C)n3)c3ccccc3n2)c1 | inconclusive: 89.1 µM [inhibitor, single point] | 
41 | CS(=O)(=O)N(CC(=O)N1CCN(Cc2ccc3c(c2)OCO3)CC1)c1ccc2c(c1)OCO2 | inconclusive: 1.78 µM [inhibitor, full curve, poor fit] | 
42 | O=C1Cc2ccccc2C(=O)N1Nc1ccccc1 | inconclusive: 112 µM [inhibitor, partial curve, poor fit] | 

Gathered by group: the entries above with a halogen (13)
Row | Compound | Potency | activity change, negative = inhibition
1 | O=C(Nc1ccc(Cl)cc1)Nc1ccccc1NS(=O)(=O)c1cccs1 | inconclusive: 44.7 µM [inhibitor, partial curve, poor fit] | 
5 | CCCC(C)NC(=O)COc1cc2oc(=O)cc(-c3ccccc3)c2cc1Cl (stereo not drawn) | inconclusive: 112 µM [inhibitor, single point] | 
7 | COc1ccc(Cl)cc1NC(=O)c1cc2c(=O)n3ccccc3nc2s1 |  | inactive: -22.7%
10 | O=C(O)C(C/C(=N/O)c1ccc(Br)cc1)P(=O)(c1ccccc1)c1ccccc1 (stereo not drawn) | inconclusive: 35.5 µM [inhibitor, partial curve, poor fit] | 
11 | COc1ccccc1OCC(=O)OCC(=O)Nc1ncc(Cl)cc1Cl | inconclusive: 35.5 µM [inhibitor, partial curve] | 
14 | Cc1cc(NC(=O)CCN2CCN(C/C=C/c3ccccc3)CC2)ccc1Br | active: 6.31 µM | 
18 | O=C(COc1cccc(Br)c1)OCc1coc(-c2ccccc2)n1 | inconclusive: 0.199 µM [inhibitor, full curve, poor fit] | 
21 | COc1ccc(C(=O)C[n+]2cn(C(F)F)c3ccccc32)c(F)c1 |  | inactive: 3.84%
24 | Cn1nc(C(F)(F)F)c(Cl)c1C(=O)Nc1sc2c(c1C#N)CCCC2 | inconclusive: 31.6 µM [inhibitor, partial curve, poor fit] | 
27 | Cc1ccc(CC(C#N)Sc2nnc(COc3ccccc3Cl)n2C)cc1 (stereo not drawn) | inconclusive: 50.1 µM [inhibitor, partial curve, poor fit] | 
28 | CC(C)CCN1CCC(N2CCN(C(=O)c3cc(F)cc(F)c3)CC2)C1=O (stereo not drawn) |  | inactive: 80.2%
32 | CN(C)N1C(N)=C(C#N)C(c2cccc(Cl)c2)C2=C1CCCC2=O (stereo not drawn) | inconclusive: 50.1 µM [inhibitor, partial curve, poor fit] | 
39 | COc1ccc(NC(=O)Nc2nc(C(N)Cc3ccc(C(F)(F)F)cc3)cs2)cc1 (stereo not drawn) | inconclusive: 70.8 µM [inhibitor, partial curve, poor fit] | 

(cont.)

Row | Compound | Potency | activity change, negative = inhibition
43 | Cc1ccc2c(CNC3CCC(C)CC3)c(C(=O)O)n(Cc3cccc(F)c3)c2c1 (stereo not drawn) | inconclusive: 89.1 µM [inhibitor, partial curve, poor fit] | 
44 | CNc1nc(-c2cc3c4c(c2)CC(=O)N4CCC3)cs1 | inconclusive: 25.1 µM [inhibitor, partial curve, poor fit] | 
45 | COc1ccc(-c2cccc(NS(=O)(=O)c3cc([N+](=O)[O-])c(C)c([N+](=O)[O-])c3)c2)nn1 | inconclusive: 70.8 µM [inhibitor, partial curve, poor fit] | 
46 | COc1ccc(CCn2nnnc2C(c2ccc(Cl)cc2)N2CCN(C)CC2)cc1OC (stereo not drawn) | inconclusive: 56.2 µM [inhibitor, partial curve, poor fit] | 
47 | O=C(OCCOc1cccc(Cl)c1)c1ccc2ncsc2c1 | inconclusive: 126 µM [inhibitor, single point] | 
48 | CNc1cc(CSC)nc(SCc2ccc(Cl)c(Cl)c2)n1 | inconclusive: 28.2 µM [inhibitor, partial curve] | 
49 | COC(=O)c1cc2sccc2n1CC(=O)N1CCCc2ccccc21 |  | inactive: 6.96%
50 | COC(=O)CC(NS(=O)(=O)c1cccs1)c1ccc2c(c1)OCO2 (stereo not drawn) | inconclusive: 126 µM [inhibitor, single point] | 
51 | CN(C)Cc1nnc(C2CCCN(C(=O)c3cccc(N(C)C)c3)C2)n1C (stereo not drawn) |  | inactive: 44.8%
52 | C[C@@H]1CCCCO[C@@H](CN(C)Cc2ccc3c(c2)OCO3)[C@@H](C)CN([C@H](C)CO)C(=O)c2cc(N(C)C)ccc2O1 | inconclusive: 0.251 µM [inhibitor, full curve, poor fit] | 
53 | CC1CCCC2(C1)NC(=S)N(c1ccccc1)N2 (stereo not drawn) | inconclusive: 0.708 µM [inhibitor, full curve, poor fit] | 
54 | Cc1ccc(OCCCCCN2CCOCC2)c(Cl)c1 | inconclusive: 0.794 µM [inhibitor, full curve, poor fit] | 
55 | COc1ccc(CNC(=O)Cc2c(C)c3c(OC)cc(C)cc3oc2=O)cc1OC | inconclusive: 141 µM [inhibitor, single point] | 
56 | CCCCCC[C@@H]([C@@H](C)O)n1cnc2c(N)ncnc21 | inconclusive: 12.6 µM [inhibitor, partial curve, poor fit] and inconclusive: 35.5 µM [inhibitor, partial curve, poor fit] | 
57 | N#Cc1c(NC(=O)C2CC2)sc2c1CCCCC2 | inconclusive: 56.2 µM [inhibitor, partial curve, poor fit] | 
58 | Cc1cc(O)c(-c2cc(O)c(C)cc2O)cc1O | inconclusive: 35.5 µM [inhibitor, partial curve, poor fit] | 
59 | COc1cc(/C=C/C=C2/CC/C(=C/C=C/c3ccc(O)c(OC)c3)C2=O)ccc1O | inconclusive: 12.6 µM [inhibitor, full curve, poor fit] | 
60 | Cn1c(=O)c2nc(Cl)n(Cc3ccccc3)c2n(C)c1=O | inconclusive: 112 µM [inhibitor, single point] | 
61 | CCOC(=O)C1=C(CNCCc2ccc(Cl)cc2)NC(=O)NC1c1ccc2c(c1)OCO2 (stereo not drawn) |  | inactive: 0%
62 | CC(=O)c1ccc(OCCCC(=O)Nc2ccc3c(C)cc(=O)oc3c2)cc1 |  | inactive: -20%
63 | COc1cccc(Cn2c(=O)c(-c3cccs3)nc3cnc(N4CCNCC4)nc32)c1 | inconclusive: 112 µM [inhibitor, single point] | 
